Results are given in words; binding and its absence hold for the method and conditions named. Binding seen in cells or lysates may run through a third protein. Some results given as binding are weak or reduced against the parent protein; the word gives no strength.
Biological target: hNTS1-GFP10 (human) (UniProt P30989)
Assay: FRET or BRET; BRET2 in live CHO-K1 cells transiently transfected with hNTS1-GFP10 and RlucII-β-arrestin 1 or 2; stimulated with increasing concentrations of NT(8–13) or JMV2009 in HBSS with 20 mM HEPES; coelenterazine 400A 5 µM, 15 min at 37 °C

Protein sequences, listed by entry. Tags and fused reporters are not part of them.
UniProt P49407: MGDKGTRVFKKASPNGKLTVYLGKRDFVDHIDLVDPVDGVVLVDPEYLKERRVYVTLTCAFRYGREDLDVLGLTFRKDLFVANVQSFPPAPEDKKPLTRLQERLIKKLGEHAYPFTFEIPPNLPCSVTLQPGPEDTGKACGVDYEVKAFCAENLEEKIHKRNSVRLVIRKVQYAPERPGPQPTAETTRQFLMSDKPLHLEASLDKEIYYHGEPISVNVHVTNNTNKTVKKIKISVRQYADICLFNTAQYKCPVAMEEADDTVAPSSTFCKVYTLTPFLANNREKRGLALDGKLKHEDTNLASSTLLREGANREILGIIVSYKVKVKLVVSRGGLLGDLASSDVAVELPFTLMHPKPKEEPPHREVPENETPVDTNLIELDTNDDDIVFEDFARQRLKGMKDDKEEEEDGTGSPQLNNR

binding | Substance
binds | RlucII-β-arrestin 1 (from UniProt P49407 1-418)
binds | RlucII-β-arrestin 2 (from UniProt P32121 1-409)

From article PMC7327804 (Data in Brief, 2020)
